Experimental data published in paper PMC10577574.
Results are given in words; binding and its absence hold for the method and conditions named. Binding seen in cells or lysates may run through a third protein. Some entries that bind do so weakly or less than the wild type. For some assays here: Where a sequence is shown, tags or fusion partners need not be part of it.

Amino acid sequences for entries named in this document (tags omitted). Residues count along the entry.
UniProt P05067, residues 18-770: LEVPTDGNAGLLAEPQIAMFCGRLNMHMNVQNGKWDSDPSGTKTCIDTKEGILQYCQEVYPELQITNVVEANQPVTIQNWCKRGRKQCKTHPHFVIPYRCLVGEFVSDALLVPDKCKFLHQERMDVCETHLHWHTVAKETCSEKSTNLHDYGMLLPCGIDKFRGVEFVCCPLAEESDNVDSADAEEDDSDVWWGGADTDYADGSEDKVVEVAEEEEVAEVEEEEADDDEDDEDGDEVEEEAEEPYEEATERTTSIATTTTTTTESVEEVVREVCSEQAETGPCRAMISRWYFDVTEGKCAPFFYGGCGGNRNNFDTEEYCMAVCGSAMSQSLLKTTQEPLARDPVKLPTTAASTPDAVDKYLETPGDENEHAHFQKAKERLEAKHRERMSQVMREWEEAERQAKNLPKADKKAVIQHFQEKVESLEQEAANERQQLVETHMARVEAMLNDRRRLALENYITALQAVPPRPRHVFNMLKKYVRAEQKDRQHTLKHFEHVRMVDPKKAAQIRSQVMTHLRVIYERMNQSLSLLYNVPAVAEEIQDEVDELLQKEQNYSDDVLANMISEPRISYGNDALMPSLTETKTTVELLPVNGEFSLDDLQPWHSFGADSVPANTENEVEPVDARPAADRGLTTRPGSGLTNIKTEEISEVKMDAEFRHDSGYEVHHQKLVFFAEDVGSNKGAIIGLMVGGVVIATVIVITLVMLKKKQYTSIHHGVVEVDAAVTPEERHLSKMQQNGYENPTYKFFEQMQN

Tests used:
[1] = target: APP in HEK293T cells (co-IPs of Figure 3f,g and 3j) (UniProt P05067); assay: co-IP; Myc-tagged SIRT2 and APP, with or without Flag-tagged SIRT1, in HEK293T cells
[2] = target: APP in HEK293 WT or SIRT1 KO cells (UniProt P05067); assay: co-IP; SIRT2 and APP in WT or SIRT1 KO HEK293 cells

Row | binding [1] | binding [2] | Binder
1 | binds | – | Myc-tagged SIRT2, in HEK293T cells (enzyme, UniProt Q8IXJ6 1-389) MAEPDPSHPLETQAGKVQEAQDSDSDSEGGAAGGEADMDFLRNLFSQTLSLGSQKERLLDELTLEGVARYMQSERCRRVICLVGAGISTSAGIPDFRSPSTGLYDNLEKYHLPYPEAIFEISYFKKHPEPFFALAKELYPGQFKPTICHYFMRLLKDKGLLLRCYTQNIDTLERIAGLEQEDLVEAHGTFYTSHCVSASCRHEYPLSWMKEKIFSEVTPKCEDCQSLVKPDIVFFGESLPARFFSCMQSDFLKVDLLLVMGTSLQVQPFASLISKAPLSTPRLLINKEKAGQSDPFLGMIMGLGGGMDFDSKKAYRDVAWLGECDQGCLALAELLGWKKELEDLVRREHASIDAQSGAGVPNPSTSASPKKSPPPAKDEARTTEREKPQ
2 | – | binds | SIRT2 in HEK293 WT or SIRT1 KO cells (enzyme, UniProt Q8IXJ6 1-389) MAEPDPSHPLETQAGKVQEAQDSDSDSEGGAAGGEADMDFLRNLFSQTLSLGSQKERLLDELTLEGVARYMQSERCRRVICLVGAGISTSAGIPDFRSPSTGLYDNLEKYHLPYPEAIFEISYFKKHPEPFFALAKELYPGQFKPTICHYFMRLLKDKGLLLRCYTQNIDTLERIAGLEQEDLVEAHGTFYTSHCVSASCRHEYPLSWMKEKIFSEVTPKCEDCQSLVKPDIVFFGESLPARFFSCMQSDFLKVDLLLVMGTSLQVQPFASLISKAPLSTPRLLINKEKAGQSDPFLGMIMGLGGGMDFDSKKAYRDVAWLGECDQGCLALAELLGWKKELEDLVRREHASIDAQSGAGVPNPSTSASPKKSPPPAKDEARTTEREKPQ
